Among the data in PMC10998217 are binding values, retold here.

Sequences of proteins named here, by UniProt entry; tags and fusion partners are left off.
UniProt O14980: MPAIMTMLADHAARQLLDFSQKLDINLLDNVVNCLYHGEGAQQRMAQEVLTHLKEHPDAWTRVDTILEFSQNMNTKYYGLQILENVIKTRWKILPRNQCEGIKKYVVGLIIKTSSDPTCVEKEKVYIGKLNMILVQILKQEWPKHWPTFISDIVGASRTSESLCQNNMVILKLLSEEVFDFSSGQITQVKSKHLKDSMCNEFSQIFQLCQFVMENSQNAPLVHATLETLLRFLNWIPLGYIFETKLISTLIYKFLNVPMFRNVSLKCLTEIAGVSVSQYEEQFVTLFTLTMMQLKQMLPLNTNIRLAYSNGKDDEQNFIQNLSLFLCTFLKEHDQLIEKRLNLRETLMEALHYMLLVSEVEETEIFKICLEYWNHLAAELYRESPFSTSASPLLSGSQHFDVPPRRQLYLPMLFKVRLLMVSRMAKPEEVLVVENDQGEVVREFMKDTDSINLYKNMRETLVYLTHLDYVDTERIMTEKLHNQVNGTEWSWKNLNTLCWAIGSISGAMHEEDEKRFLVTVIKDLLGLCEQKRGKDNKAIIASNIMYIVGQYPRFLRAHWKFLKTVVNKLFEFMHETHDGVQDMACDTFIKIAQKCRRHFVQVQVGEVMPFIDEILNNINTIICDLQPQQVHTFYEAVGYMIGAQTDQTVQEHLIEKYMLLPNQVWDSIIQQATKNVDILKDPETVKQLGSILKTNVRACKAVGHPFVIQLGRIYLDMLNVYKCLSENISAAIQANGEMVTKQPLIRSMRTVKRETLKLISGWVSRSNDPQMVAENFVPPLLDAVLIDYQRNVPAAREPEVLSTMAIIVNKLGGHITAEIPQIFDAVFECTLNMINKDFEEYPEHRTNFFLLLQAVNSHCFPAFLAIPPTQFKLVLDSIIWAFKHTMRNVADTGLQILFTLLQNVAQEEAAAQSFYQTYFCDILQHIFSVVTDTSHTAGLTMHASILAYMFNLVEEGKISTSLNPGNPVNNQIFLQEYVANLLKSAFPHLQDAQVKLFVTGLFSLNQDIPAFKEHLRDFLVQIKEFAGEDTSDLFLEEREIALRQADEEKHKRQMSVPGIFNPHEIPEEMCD
UniProt Q9Y5T5: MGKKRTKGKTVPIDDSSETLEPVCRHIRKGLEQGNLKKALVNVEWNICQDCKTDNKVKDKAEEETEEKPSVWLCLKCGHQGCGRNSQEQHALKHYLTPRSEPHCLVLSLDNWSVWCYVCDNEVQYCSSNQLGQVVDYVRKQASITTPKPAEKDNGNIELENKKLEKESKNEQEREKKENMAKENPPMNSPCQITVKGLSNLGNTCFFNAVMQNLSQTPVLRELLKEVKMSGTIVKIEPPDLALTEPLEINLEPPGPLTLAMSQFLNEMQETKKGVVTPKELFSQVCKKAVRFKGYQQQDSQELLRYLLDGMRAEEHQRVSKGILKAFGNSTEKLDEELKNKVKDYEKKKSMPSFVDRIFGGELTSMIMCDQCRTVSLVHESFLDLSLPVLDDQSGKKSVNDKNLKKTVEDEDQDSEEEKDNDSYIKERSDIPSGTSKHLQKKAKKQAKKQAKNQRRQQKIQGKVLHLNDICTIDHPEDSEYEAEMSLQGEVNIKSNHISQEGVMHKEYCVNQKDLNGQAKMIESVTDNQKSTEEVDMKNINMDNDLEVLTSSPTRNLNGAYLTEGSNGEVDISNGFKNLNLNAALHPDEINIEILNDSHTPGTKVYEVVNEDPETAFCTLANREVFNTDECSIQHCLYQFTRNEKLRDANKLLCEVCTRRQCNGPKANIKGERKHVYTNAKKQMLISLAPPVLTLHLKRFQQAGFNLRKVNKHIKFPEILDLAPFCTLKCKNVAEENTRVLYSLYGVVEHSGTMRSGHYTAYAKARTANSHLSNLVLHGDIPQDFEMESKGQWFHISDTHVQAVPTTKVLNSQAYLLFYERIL

The target in assay [1] is HA-Crm1 (chromosome region maintenance 1) (UniProt O14980). The assay is described as follows: co-IP; HeLa cells transfected with Flag-USP16 and HA-Crm1, treated or not with TMG + glucose; immunoblotted with anti-Flag antibodies. Background: Immunoblotting shows a protein as a band on a membrane.
The target in another assay is T1, GST-OGT (UniProt O15294).
T1 sequence: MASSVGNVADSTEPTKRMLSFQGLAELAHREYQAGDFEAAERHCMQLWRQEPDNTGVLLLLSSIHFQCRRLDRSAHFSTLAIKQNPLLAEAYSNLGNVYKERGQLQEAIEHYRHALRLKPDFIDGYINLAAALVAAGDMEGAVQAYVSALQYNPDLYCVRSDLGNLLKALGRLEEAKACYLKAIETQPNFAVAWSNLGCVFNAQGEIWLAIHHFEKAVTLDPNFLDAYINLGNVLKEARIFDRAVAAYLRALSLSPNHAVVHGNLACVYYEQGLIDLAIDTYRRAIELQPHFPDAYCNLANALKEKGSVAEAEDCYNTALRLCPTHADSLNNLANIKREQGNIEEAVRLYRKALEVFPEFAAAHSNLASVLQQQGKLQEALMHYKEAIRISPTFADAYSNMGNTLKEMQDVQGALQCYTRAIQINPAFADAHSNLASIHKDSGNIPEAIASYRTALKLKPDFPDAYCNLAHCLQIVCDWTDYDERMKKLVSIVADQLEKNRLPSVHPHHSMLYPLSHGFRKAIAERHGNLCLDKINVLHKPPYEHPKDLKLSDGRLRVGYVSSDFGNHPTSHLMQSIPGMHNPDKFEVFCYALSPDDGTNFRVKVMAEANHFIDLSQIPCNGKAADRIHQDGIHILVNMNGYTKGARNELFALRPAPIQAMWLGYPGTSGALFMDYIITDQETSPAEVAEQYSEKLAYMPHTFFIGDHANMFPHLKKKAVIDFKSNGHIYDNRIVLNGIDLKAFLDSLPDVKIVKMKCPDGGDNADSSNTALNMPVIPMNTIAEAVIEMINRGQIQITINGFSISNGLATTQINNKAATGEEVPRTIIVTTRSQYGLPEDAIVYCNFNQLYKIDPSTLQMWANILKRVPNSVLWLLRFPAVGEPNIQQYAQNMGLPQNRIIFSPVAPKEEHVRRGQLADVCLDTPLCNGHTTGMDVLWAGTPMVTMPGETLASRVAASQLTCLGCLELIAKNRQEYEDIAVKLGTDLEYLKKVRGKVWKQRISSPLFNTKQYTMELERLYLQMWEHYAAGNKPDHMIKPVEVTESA
The assay is described as follows: pull-down; recombinant GST-OGT (or GST) incubated with lysates of HeLa cells transfected with Flag-USP16 or vector; only the target purified.

No constants are given. Whether binding was seen depends on the method and setting. In cells and extracts the contact can be indirect. Some results given as binding are weak or reduced against the parent protein; the word gives no strength. For some assays here: Where a sequence is shown, tags or fusion partners need not be part of it.

Regarding “Flag-USP16 (ubiquitin-specific peptidase 16) (from UniProt Q9Y5T5 1-823) (enzyme)”, the binding entry (in assay [1]; with GST-OGT) was “binds” each time.
